According to patent US20080081075A1, “Multifunctional mixed micelle of graft and block copolymers and preparation thereof” (National Tsing Hua University, priority 2006, published 2008):

Tested on: HeLa cells
Experiment: Cytotoxicity evaluation, MTT assay
Assay type: cell-based
Settings: 72 h incubation

COc1cccc2c1C(=O)c1c(O)c3c(c(O)c1C2=O)C[C@@](O)(C(=O)CO)C[C@@H]3O[C@H]1C[C@H](N)[C@H](O)[C@H](C)O1 [free Dox, doxorubicin]
inhibition concentration (IC50): 1.2 µg/mL
